Reference: the supplement of paper PMC4683952
Counter-ions that a name gives are not always drawn. The list shows a part of the results. Rule as the data show it: active = 2.5 or more and inactive = the rest. Most values lie within the scatter of the assay; repeated measurements hardly agree.

What follows are molecules tested on Lgr5 (MarsCy1-Lgr5-EGFP, U2OS) (assay: cell-surface Lgr5 expression (SCi1 fluorescence, background-subtracted) relative to WT control (fold of WT control); higher = more Lgr5 at the plasma membrane). Conditions: U2OS MarsCy1-Lgr5-EGFP stable; treatment time: overnight; library: Prestwick; 20 µM.

SMILES | cell-surface Lgr5 expression
NCC(O)c1ccc(O)cc1 (racemic) [(+,-)-Octopamine hydrochloride] | inactive: 1.95
CN1[C@@H]2CC[C@H]1C[C@@H](OC1c3ccccc3CCc3ccccc31)C2 [Deptropine citrate] | inactive: 1.36
COc1ccc2c3c([nH]c2c1)C(C)=NCC3 [Harmaline hydrochloride dihydrate] | inactive: 1.51
C[C@@H]1O[C@@H](O[C@H]2C[C@@H](O)[C@]3(CO)[C@H]4[C@H](O)C[C@]5(C)[C@@H](C6=CC(=O)OC6)CC[C@]5(O)[C@@H]4CC[C@]3(O)C2)[C@H](O)[C@H](O)[C@H]1O [Strophantine octahydrate] | inactive: -0.0403
CC[C@@]1([C@@H]2O[C@@H]([C@H]3O[C@@](O)(CO)[C@H](C)C[C@@H]3C)C[C@@H]2C)CC[C@H]([C@]2(C)CC[C@]3(C[C@H](O)[C@@H](C)[C@@H]([C@@H](C)[C@@H](OC)[C@H](C)C(=O)O)O3)O2)O1 [Monensin sodium salt] | inactive: 1.25
CCC1(c2ccc(N)cc2)CCC(=O)NC1=O (configuration not stated) [Glutethimide, para-amino] | inactive: 1.1
CCn1cc(C(=O)O)c(=O)c2cc3c(cc21)OCO3 [Oxolinic acid] | inactive: 1.2
C[C@]12CC[C@H](O)C[C@@H]1CC[C@@H]1[C@@H]2CC[C@]2(C)C(=O)CC[C@@H]12 [Epiandrosterone] | inactive: 0.636
CN(C)C(=O)Oc1cc(OC(=O)N(C)C)cc(C(O)CNC(C)(C)C)c1 (configuration not stated) [Bambuterol hydrochloride] | inactive: 1.36
CCN1C[C@]2(COC)[C@H](O)C[C@H](OC)[C@@]34[C@@H]5C[C@@]6(O)[C@H](OC(=O)c7ccccc7)[C@@H]5[C@@](OC(C)=O)([C@@H]([C@H](OC)[C@H]23)[C@@H]14)[C@@H](O)[C@@H]6OC [Aconitine] | inactive: 1.89
O=[N+]([O-])c1cc([As](=O)(O)O)ccc1O [Roxarsone] | inactive: 1.07
c1cncc(C2=NCCC2)c1 [Myosmine] | inactive: 2.48
Cc1nccc2c1[nH]c1ccccc12 [Harmane hydrochloride] | inactive: 1.57
Cc1c2ccncc2c(C)c2c1[nH]c1ccccc12 [Ellipticine] | inactive: 1.67
CC(=O)OCC(=O)[C@H]1CC[C@H]2[C@@H]3CC[C@H]4C[C@H](O)CC[C@]4(C)[C@H]3C(=O)C[C@]12C [Alfadolone acetate] | inactive: 1.3
C=C[C@]12CN(C)[C@@H]3[C@H]4CO[C@H](C[C@H]41)[C@]1(C(=O)Nc4ccccc41)[C@@H]32 [Gelsemine] | inactive: 1.85
C=C(C)[C@@H]1[C@H]2OC(=O)[C@@H]1[C@]1(O)C[C@H]3O[C@]34C(=O)O[C@H]2[C@]14C [Picrotoxinin] | inactive: 2.06
CC(C)c1c(CN(C)C(C)Cc2ccccc2)n(C)n(-c2ccccc2)c1=O (configuration not stated) [Famprofazone] | active: 3.19
CO[C@H](C)[C@](O)(C(=O)OCC1=CCN2CC[C@H](O)[C@@H]12)C(C)C [Heliotrine] | inactive: 1.88
O=P1(NCCCl)OCCCN1CCCl (configuration not stated) [Ifosfamide] | inactive: 1.98
NC(=O)CN1CCCC1=O [Piracetam] | inactive: 2.2
COc1cc2c(cc1OC)C(C)NCC2 (configuration not stated) | inactive: 1.97
Cc1cccc(C)c1NC1=NCCCS1 [Xylazine] | inactive: 1.8
C[C@]12CC[C@H](O)C[C@H]1CC[C@@H]1[C@@H]2C[C@@H](O)[C@]2(C)[C@@H](C3=CC(=O)OC3)CC[C@]12O [Digoxigenin] | inactive: 0.643

9 structures already listed, ordered by SMILES length, smallest number first.
SMILES | cell-surface Lgr5 expression
NC(=O)CN1CCCC1=O [Piracetam] | inactive: 2.2
Cc1cccc(C)c1NC1=NCCCS1 [Xylazine] | inactive: 1.8
CCC1(c2ccc(N)cc2)CCC(=O)NC1=O (configuration not stated) [Glutethimide, para-amino] | inactive: 1.1
Cc1c2ccncc2c(C)c2c1[nH]c1ccccc12 [Ellipticine] | inactive: 1.67
CCn1cc(C(=O)O)c(=O)c2cc3c(cc21)OCO3 [Oxolinic acid] | inactive: 1.2
CN1[C@@H]2CC[C@H]1C[C@@H](OC1c3ccccc3CCc3ccccc31)C2 [Deptropine citrate] | inactive: 1.36
C[C@]12CC[C@H](O)C[C@@H]1CC[C@@H]1[C@@H]2CC[C@]2(C)C(=O)CC[C@@H]12 [Epiandrosterone] | inactive: 0.636
C[C@]12CC[C@H](O)C[C@H]1CC[C@@H]1[C@@H]2C[C@@H](O)[C@]2(C)[C@@H](C3=CC(=O)OC3)CC[C@]12O [Digoxigenin] | inactive: 0.643
C[C@@H]1O[C@@H](O[C@H]2C[C@@H](O)[C@]3(CO)[C@H]4[C@H](O)C[C@]5(C)[C@@H](C6=CC(=O)OC6)CC[C@]5(O)[C@@H]4CC[C@]3(O)C2)[C@H](O)[C@H](O)[C@H]1O [Strophantine octahydrate] | inactive: -0.0403

(further entries)

SMILES | cell-surface Lgr5 expression
CC(=O)NC1CCSC1=O (racemic) [N-Acetyl-DL-homocysteine Thiolactone] | inactive: 1.65
CC(Cc1ccccc1)NCCC(c1ccccc1)c1ccccc1 (configuration not stated) [Prenylamine lactate] | inactive: 2.34
CNCC(O)c1ccc(O)c(OC)c1 (stereo not drawn) [Metanephrine hydrochloride DL] | inactive: 1.2
Clc1ccc(C(OCCN2CCCCC2)c2ccccc2)cc1 (configuration not stated) [Cloperastine hydrochloride] | inactive: 1.59
COc1cc2c(c(OC)c1OC)-c1ccc(O)c(=O)cc1[C@@H](N)CC2 [Trimethylcolchicinic acid] | inactive: 1.62
COc1ccc2c(c1)[nH]c1c(C)nccc12 [Harmine hydrochloride] | inactive: 1
CN1[C@@H](C[C@@H](O)c2ccccc2)CCC[C@H]1C[C@H](O)c1ccccc1 [Lobelanidine hydrochloride] | inactive: 2.27
COc1ccc(C[C@H]2NC[C@H](O)[C@H]2OC(C)=O)cc1 [Anisomycin] | inactive: -0.248
NCCc1c[nH]c2ccc(O)cc12 [Serotonin hydrochloride] | inactive: 2.09
COc1cc([C@@H]2c3cc4c(cc3[C@H](O)[C@H]3COC(=O)[C@H]23)OCO4)cc(OC)c1OC [Podophyllotoxin] | active: 3.24
CC[C@H]1CN2CCc3cc(OC)c(OC)cc3[C@@H]2C[C@@H]1C[C@H]1NCCc2cc(OC)c(OC)cc21 [Emetine dihydrochloride] | inactive: 0.51
CCC1(c2cccc(O)c2)CCCCN(C)C1 (configuration not stated) [Meptazinol hydrochloride] | inactive: 1.59
C[C@@H]1CC[C@H]2[C@@H](C)C(=O)O[C@@H]3O[C@@]4(C)CC[C@@H]1[C@]32OO4 [Artemisinin] | inactive: 1.87
CS(=N)(=O)CC[C@H](N)C(=O)O (some centres not stated) [Methionine sulfoximine (L)] | inactive: 1.8
CC[C@H]1[C@@H]2C[C@H]3[C@@H]4N(C)c5ccccc5[C@]45C[C@@H]([C@@H]2[C@H]5O)N3[C@@H]1O [Ajmaline] | inactive: 1.21
CCNC1(c2cccs2)CCCCC1=O (configuration not stated) [Tiletamine hydrochloride] | inactive: 1.09
CCN1C[C@]2(COC)CC[C@H](O)[C@@]34C5C[C@@H]6[C@@H](OC)C[C@](O)(C(CC23)C14)C5[C@H]6OC(C)=O (some centres not stated) [Condelphine] | inactive: 1.58
CO[C@]12C[C@@H](COC(=O)c3cncc(Br)c3)CN(C)[C@@H]1Cc1cn(C)c3cccc2c13 [Nicergoline] | inactive: 1.21
COC1=C[C@@H]2C3=C([C@@H]2C1=O)[C@@H](NC(C)=O)CCc1cc(OC)c(OC)c(OC)c13 [Lumicolchicine gamma] | inactive: 0.0414
CC(=O)OCC1=C(C(=O)O)N2C(=O)[C@@H](N)[C@H]2SC1 [Cephalosporanic acid, 7-amino] | inactive: 1.73
C[C@H]1C(=O)O[C@@H]2CCN3CC=C(COC(=O)[C@](C)(O)[C@]1(C)O)[C@H]23 [Monocrotaline] | inactive: 1.53
C[C@@]12N[C@@H](Cc3ccccc31)c1ccccc12 [(-)-MK 801 hydrogen maleate] | inactive: 2.28
C[N+]12CCC(CC1)C(OC(=O)C(O)(c1ccccc1)c1ccccc1)C2 (configuration not stated) [Clidinium bromide] | inactive: 2.34
